Measured values published in patent US20260199301A1, “PHENYL-PYRAZOLO[3,4-B]PYRIDINE-4-CARBOXYLIC ACID DERIVATES FOR USE AS 5-ALPHA REDUCTASE ANTAGONISTS IN METHODS OF TREATMENT” (UNIVERSITY OF CAPE TOWN, priority 2022, published 2026).
Some results were stated once for a whole list of compounds, not compound by compound.

Assay: Solubility, miniaturised shake-flask method
Format: physicochemical
Conditions: pH 7.4 as headed; phosphate buffer, 24 h, 25° C.
Method: […] Briefly, 4 μl of a 10 mM stock in DMSO was added to a 96-well plate and evaporated using a GeneVac system. […] At the end of this incubation, the samples were centrifuged at 3500 g for 15 min then transferred to an analysis plate. A calibration curve in DMSO for each sample between 10-220 μM was prepared and included in the analysis plate. Analysis was then performed by LC-MS (Agilent Rapid Resolution HPLC, AB SCIEX 4500 MS) and solubility of each sample determined from the corresponding calibration curve.
For `O=C1C=C(C(=O)O)C2C(C3CC3)=NN(c3cccc(F)c3)C2N1` (stereo not drawn) [Bsy5, 3-cyclopropyl-1-(3-fluorophenyl)-6-oxo-3a,6,7,7a-tetrahydro-1H-pyrazolo[3,4-b]pyridine-4-carboxylic acid], the “Solubility (pH 7.4)” value was “high solubility”. With `O=C1C=C(C(=O)O)C2C(C3CC3)=NN(c3ccc(F)cc3)C2N1` (stereo not drawn) [Bsy1, 3-cyclopropyl-1-(4-fluorophenyl)-6-oxo-3a,6,7,7a-tetrahydro-1H-pyrazolo[3,4-b]pyridine-4-carboxylic acid] the “Solubility (pH 7.4)” value was “high solubility”. With `COc1ccc(N2N=C(C3CC3)C3C(C(=O)O)=CC(=O)NC32)cc1` (stereo not drawn) [Bsy6, 3-cyclopropyl-1-(4-methoxyphenyl)-6-oxo-3a,6,7,7a-tetrahydro-1H-pyrazolo[3,4-b]pyridine-4-carboxylic acid] the “Solubility (pH 7.4)” value was “high solubility”. With `O=C1C=C(C(=O)O)C2C(C3CC3)=NN(c3ccc(Cl)cc3)C2N1` (stereo not drawn) [Bsy3, 1-(4-chlorophenyl)-3-cyclopropyl-6-oxo-3a,6,7,7a-tetrahydro-1H-pyrazolo[3,4-b]pyridine-4-carboxylic acid] the “Solubility (pH 7.4)” value was “high solubility”. For `O=C1C=C(C(=O)O)C2C(C3CC3)=NN(c3ccc(Br)cc3)C2N1` (stereo not drawn) [Bsy2, 1-(4-bromophenyl)-3-cyclopropyl-6-oxo-3a,6,7,7a-tetrahydro-1H-pyrazolo[3,4-b]pyridine-4-carboxylic acid], the “Solubility (pH 7.4)” value was “high solubility”. With `O=C1C=C(C(=O)O)C2C(C3CC3)=NN(c3ccccc3F)C2N1` (stereo not drawn) [Bsy4, 3-cyclopropyl-1-(2-fluorophenyl)-6-oxo-3a,6,7,7a-tetrahydro-1H-pyrazolo[3,4-b]pyridine-4-carboxylic acid] the “Solubility (pH 7.4)” value was “high solubility”.
